Laboratory results: PubChem BioAssay AID720505 (Drosophila RNAi Screening Center, 2013)
Assay: 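Knock-downs that reduce calcium influx once internal stores are emptied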 (primary screen). Cell system: Drosophila S2R+ cells. Reagent: long dsRNA against Drosophila genes. Challenge: thapsigargin (2 µM) in calcium-free buffer to empty internal stores, then 2 mM calcium added back. Detection: 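Stores emptied by 2 µM thapsigargin without calcium, then 2 mM calcium re-added; fluo-4 fluorescence followed by FLIPR in 384-well plates, per-well averaged endpoint, raw; two screen passes, some wells retested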. Direction: calcium signal and retest calcium signal: higher = more calcium entry after store depletion. Call rule: 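About 1500 genes called as lowering calcium entry, by varying amounts, judged against per-plate control wells with STIM1 as positive and Rho1 as negative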. Calls: active = called as lowering calcium entry; inactive = not called.
The screen tested about 20,000 reagents; this is a random part of those that have a named target and a result. Over the whole deposit, about 2,100 (10%) got an active call. 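Raw plate signals without normalisation; calls rest on control-based scores that were not deposited; replicate 2 separates called from uncalled poorly.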 A plus sign joins genes that one reagent is predicted to hit. Not given: the amount of reagent, the time to read-out.

Gene | amplicon | calcium signal, replicate 1 | calcium signal, replicate 2 | retest calcium signal, replicate 1 | retest calcium signal, replicate 2 | Call
sinah | DRSC09910 | 103 | 179 | – | – | inactive
sinah | DRSC22181 | 104 | 242 | – | – | inactive
CG14137 | DRSC10142 | 125 | 104 | – | – | inactive
CG14995 | DRSC08452 | 82.1 | 91.5 | – | – | inactive
CG14995 | DRSC22991 | 133 | 141 | – | – | inactive
Kif3C | DRSC17209 | 93.2 | 145 | – | – | inactive
Kif3C | DRSC17210 | 90.2 | 155 | – | – | inactive
CG43069 | DRSC05752 | 107 | 95 | – | – | inactive
CG5902 | DRSC15912 | 127 | 159 | – | – | inactive
CG4119 | DRSC17741 | 107 | 125 | – | – | inactive
CG14913 | DRSC02397 | 171 | 155 | – | – | inactive
Mtpbeta | DRSC04663 | 102 | 125 | – | – | inactive
Klp67A | DRSC11205 | 62.3 | 59.8 | – | – | inactive
wrd | DRSC16337 | 193 | 171 | – | – | inactive
wrd | DRSC16344 | 194 | 198 | – | – | inactive
wrd | DRSC23189 | 115 | 147 | – | – | inactive
CG34193 | DRSC05665 | 136 | 112 | – | – | inactive
Cln7 | DRSC11005 | 108 | 69.9 | – | – | inactive
CG7231 | DRSC03034 | 90.3 | 110 | – | – | inactive
NKAIN | DRSC04531 | 115 | 102 | – | – | inactive
NKAIN | DRSC22470 | 121 | 206 | – | – | inactive
CG10887 | DRSC14277 | 93.1 | 133 | 96.7 | 106 | inactive
Stlk | DRSC22687 | 63.2 | 122 | – | – | inactive
CG10274 | DRSC09716 | 120 | 138 | – | – | inactive
kraken | DRSC00824 | 124 | 141 | – | – | inactive
Ets98B | DRSC16666 | 72.2 | 108 | 119 | 81.8 | active
stc | DRSC03620 | 84.2 | 114 | – | – | inactive
CG17570 | DRSC01770 | 103 | 4218 | – | – | inactive
CG17570 | DRSC03754 | 154 | 94 | – | – | inactive
Polr3E | DRSC11880 | 79.8 | 106 | – | – | inactive
CG10086 | DRSC14183 | 88.1 | 195 | – | – | inactive
GILT3 | DRSC14672 | 63.2 | 119 | – | – | active
ouib | DRSC14376 | 98.6 | 173 | – | – | inactive
cora | DRSC07597 | 118 | 110 | – | – | inactive
CG42241 (retired record) | DRSC04007 | 104 | 104 | – | – | inactive
CG13250 | DRSC11698 | 103 | 206 | – | – | inactive
Oatp30B | DRSC02727 | 71.5 | 86.3 | – | – | inactive
CG14421 | DRSC17918 | 109 | 144 | – | – | inactive
Obp69a | DRSC11247 | 110 | 92.5 | – | – | inactive
CG33655 | DRSC03858 | 79.8 | 8719 | – | – | inactive
CG6813 | DRSC16122 | 172 | 97.8 | – | – | inactive
Pex7 | DRSC10651 | 77.7 | 70.7 | – | – | inactive
Incenp | DRSC06116 | 202 | 97.5 | – | – | inactive
Incenp | DRSC21950 | 95.3 | 212 | – | – | inactive
Vha100-4 | DRSC16282 | 175 | 181 | – | – | inactive
CG5946 | DRSC10560 | 60.1 | 84.5 | – | – | active
aux | DRSC12161 | 63.7 | 127 | – | – | active
CG9328 | DRSC03203 | 71.8 | 91.8 | – | – | inactive
CG3769 | DRSC02723 | 172 | 188 | – | – | inactive
Bfc | DRSC08623 | 76.1 | 104 | – | – | inactive
CG12942 | DRSC06253 | 155 | 112 | – | – | inactive
CG31115 | DRSC13692 | – | – | – | – | active
CG5783 | DRSC02894 | 129 | 82 | – | – | inactive
Tat | DRSC19602 | 92.8 | 102 | – | – | inactive
CG16852 | DRSC01876 | 123 | 127 | – | – | inactive
Ets96B | DRSC16127 | 131 | 140 | – | – | inactive
Ctl2 | DRSC14423 | 99 | 126 | – | – | inactive
CG33467 | DRSC05525 | 135 | 165 | – | – | inactive
CG33467 | DRSC22651 | 53.6 | 122 | – | – | inactive
bbx + waw | DRSC20575 | 131 | 104 | – | – | inactive
bbx + waw | DRSC20589 | 88.1 | 132 | – | – | inactive
CG33170 | DRSC11854 | 90.2 | 111 | – | – | inactive
CG33170 | DRSC22366 | 66.4 | 213 | – | – | inactive
CG31204 | DRSC15106 | 98 | 124 | – | – | inactive
CG4465 | DRSC15584 | 174 | 143 | – | – | inactive
CG8516 | DRSC16437 | 169 | 80.9 | – | – | inactive
cGlr2 | DRSC04017 | 79.4 | 58.6 | – | – | active
Eig71Ee | DRSC11152 | 66.3 | 159 | – | – | inactive
CG41099 | DRSC21049 | 143 | 118 | – | – | inactive
CG41099 | DRSC21051 | 125 | 90.3 | – | – | inactive
RpS28b | DRSC18258 | 147 | 52 | – | – | active
nolo | DRSC03705 | 152 | 123 | – | – | inactive
nolo | DRSC03719 | 72.2 | 80.9 | – | – | active
nolo | DRSC03720 | 74.4 | 101 | – | – | active
CG10822 | DRSC06005 | 192 | 123 | – | – | inactive
Sik2 | DRSC18522 | 102 | 136 | – | – | inactive
Hsp67Bc | DRSC11193 | 81.2 | 70.1 | – | – | inactive
CG5928 | DRSC18391 | 227 | 118 | 5273 | 156 | inactive
gudu | DRSC02820 | 152 | 77.3 | – | – | inactive
CG31274 + MESK4 | DRSC13202 | – | – | – | – | inactive
CG18278 + CG30059 | DRSC05418 | 77.5 | 141 | – | – | inactive
Fpps | DRSC07429 | 142 | 132 | – | – | inactive
Srrm1 | DRSC09835 | 57.1 | 87.3 | – | – | active
